PubChem BioAssay AID652243 – Drosophila RNAi Screening Center | 2013
Purpose: 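Fly genes required for human androgen receptor driven transcription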 (primary screen). Cell system: Drosophila S2R+ cells. Knock-down reagent: long dsRNA against Drosophila genes. Time to read-out: 72 h (48 h, then 24 h hormone). Treatment: synthetic androgen R1881 at 10 nM for 24 h. Detection: 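Per-well raw luminescence of the androgen-driven firefly reporter and of the Renilla control, two replicates each, without normalisation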. Scale: firefly reporter light: higher = more light from androgen-responsive reporter; Renilla control light: higher = more constitutive control signal (cell number, transfection). Call rule: 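Hit when the log firefly-to-Renilla ratio dropped or increased by a fixed fold versus the mean of GFP or LacZ controls across duplicate plates; lowering cut given as 1.5 and as 3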. Meaning of the calls: active = hit: reporter lowered or raised; inactive = no hit.
The deposit covers about 24,000 reagents; shown is a random part of those that have a named target and a result. Over the whole deposit, 246 (1%) got an active call. 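Plates not normalised; calls are printed but the firefly/Renilla ratio behind them is not deposited; fold cut for lowering reported inconsistently.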 Raw values vary from plate to plate and are shown uncorrected. The numbers tell different reagents against one gene apart. A plus sign joins genes that one reagent is predicted to hit. Not stated in the record: the amount of reagent.

Target gene	dsRNA no.	firefly reporter light, replicate 1	firefly reporter light, replicate 2	Renilla control light, replicate 1	Renilla control light, replicate 2	activity call
CG11836	1	91579	93910	5.77e5	5.13e5	inactive
CG3511	1	6.83e5	7.55e5	1.23e6	1.42e6	inactive
CG3511	2	4.14e5	6.55e5	9.14e5	1.08e6	inactive
rib (ribbon)	1	9.07e5	8.01e5	1.08e6	1.10e6	inactive
CG12983	1	2.37e5	2.75e5	2.21e6	2.06e6	inactive
unpg (unplugged)	1	3.30e5	1.83e5	1.71e6	1.11e6	inactive
unpg (unplugged)	2	3.31e5	3.82e5	9.10e5	7.42e5	inactive
CG34167	1	8.13e5	7.01e5	2.33e6	2.06e6	inactive
CG4730	1	1.72e5	2.10e5	2.09e6	2.14e6	inactive
CG4730	2	9.04e5	7.55e5	9.11e5	1.07e6	inactive
Taf12 (TBP-associated factor 12)	1	43403	82363	2.42e5	2.85e5	inactive
Taf12 (TBP-associated factor 12)	2	3.97e5	3.95e5	1.11e6	9.56e5	inactive
CG7900	1	3.47e5	3.51e5	2.20e6	1.97e6	active
CG7900	2	4.49e5	5.40e5	1.59e6	1.42e6	inactive
CG15208	1	44259	74028	2.86e5	4.19e5	inactive
Srg3 (Sting-regulated gene 3)	1	1.48e5	2.13e5	5.69e5	6.47e5	inactive
Srg3 (Sting-regulated gene 3)	2	2.50e5	2.52e5	2.84e6	1.53e6	inactive
Lrr47 (Leucine-rich repeat 47)	1	8.91e5	1.58e6	9.68e5	1.74e6	inactive
UQCR-11L (Ubiquinol-cytochrome c reductase 11 kDa subunit-like)	1	1.37e6	1.15e6	2.19e6	1.81e6	inactive
CG4553	1	1.79e5	2.41e5	2.39e6	2.31e6	inactive
CG4553	2	5.05e5	3.97e5	1.57e6	9.18e5	inactive
CG34305	1	7.14e5	7.72e5	1.37e6	1.47e6	inactive
Tsr1 (Tsr1 ribosome assembly factor)	1	34300	24650	2.39e5	2.99e5	inactive
ATPsynCF6L (ATP synthase, coupling factor 6-like)	1	1.90e5	2.01e5	2.54e6	3.18e6	inactive
ATPsynCF6L (ATP synthase, coupling factor 6-like)	2	3.01e5	2.86e5	6.42e5	7.98e5	inactive
CG30447	1	1.13e5	2.12e5	3.63e5	3.23e5	inactive
L2HGDH (L-2-hydroxyglutarate dehydrogenase)	1	6.41e5	9.24e5	1.26e6	1.16e6	inactive
L2HGDH (L-2-hydroxyglutarate dehydrogenase)	2	3.20e5	4.22e5	1.07e6	9.89e5	inactive
vlc (vulcan)	1	3.57e5	3.74e5	2.40e6	2.40e6	inactive
Cpr72Eb (Cuticular protein 72Eb)	1	2.80e5	2.14e5	2.75e6	2.54e6	inactive
Tsp42Er (Tetraspanin 42Er)	1	3.90e5	3.11e5	2.52e6	1.67e6	inactive
Secp43 (tRNA Selenocysteine associated protein)	1	1.20e5	65656	9.82e5	1.01e6	inactive
Secp43 (tRNA Selenocysteine associated protein)	2	2.64e5	2.72e5	8.84e5	9.57e5	inactive
CG1910	1	66799	81877	5.43e5	5.13e5	inactive
CG1910	2	6.46e5	7.14e5	1.27e6	1.15e6	inactive
CG17187	1	1.69e5	1.74e5	3.97e5	4.98e5	inactive
CG17187	2	4.87e5	2.98e5	1.31e6	1.32e6	inactive
CG30369	1	5.10e5	5.95e5	2.21e6	2.02e6	inactive
CG30369	2	8.15e5	7.67e5	1.29e6	1.70e6	inactive
NaCP60E (Na channel protein 60E)	1	3.79e5	5.03e5	1.14e6	1.82e6	inactive
NaCP60E (Na channel protein 60E)	2	7.32e5	8.00e5	2.74e6	2.38e6	inactive
NaCP60E (Na channel protein 60E)	3	2.49e5	3.47e5	5.34e5	5.50e5	inactive
Arpc4 (Actin-related protein 2/3 complex, subunit 4)	1	1.43e5	1.62e5	1.28e6	1.20e6	inactive
Arpc4 (Actin-related protein 2/3 complex, subunit 4)	2	3.29e5	2.40e5	9.11e5	9.11e5	inactive
BCAS2	1	83115	53927	5.35e5	4.82e5	inactive
BCAS2	2	3.46e5	4.32e5	1.94e6	1.66e6	inactive
CG30376	1	1.23e5	2.73e5	4.68e5	6.73e5	inactive
CG1537	1	2.81e5	3.63e5	3.58e6	4.47e6	inactive
kappaB-Ras + CG30503	1	3.65e5	1.63e5	1.98e6	9.70e5	inactive
kappaB-Ras + CG30503	2	5.64e5	4.05e5	2.49e6	2.08e6	inactive
kappaB-Ras + CG30503	3	5.32e5	5.69e5	5.49e5	5.00e5	inactive
CG42540	1	73663	63509	1.23e6	1.64e6	inactive
CG42540	2	6.46e5	8.67e5	2.04e6	2.23e6	inactive
CG42540	3	5.14e5	5.99e5	9.37e5	8.45e5	inactive
CG42540	4	5.93e5	3.38e5	1.42e6	1.01e6	inactive
CG3081	1	1.03e5	1.52e5	1.97e6	2.49e6	inactive
Plap (Phospholipase A2 activator protein)	1	7.56e5	1.11e6	1.71e6	1.62e6	inactive
su(f) (suppressor of forked)	1	1.61e5	2.32e5	6.21e5	3.22e5	inactive
ppk22 (pickpocket 22)	1	9.10e5	8.56e5	1.85e6	1.93e6	inactive
CR17438 (pseudo)	1	4.03e5	4.25e5	2.56e6	2.73e6	inactive
CR17438 (pseudo)	2	38914	12911	2675	319	inactive
Fign (Fidgetin)	1	8.37e5	9.73e5	1.90e6	1.97e6	inactive
spok (spookier)	1	9.18e5	4.46e5	2.16e6	1.18e6	inactive
lbm (late bloomer)	1	3.30e5	3.97e5	1.77e6	1.76e6	inactive
asRNA:CR33945 (antisense RNA:CR33945)	1	6.14e5	6.23e5	1.96e6	1.32e6	inactive
asRNA:CR33945 (antisense RNA:CR33945)	2	5.51e5	7.84e5	2.10e6	1.96e6	inactive
Fuca (alpha-L-fucosidase)	1	2.43e5	1.72e5	2.20e6	1.85e6	inactive
CG11583	1	6.22e5	6.11e5	1.70e6	1.80e6	inactive
CG11583	2	3.03e5	2.77e5	6.51e5	6.88e5	inactive
Hrd3 (HMG-coA reductase degradation 3)	1	53210	42265	4.25e5	4.36e5	inactive
Taf5 (TBP-associated factor 5)	1	6.69e5	2.79e5	1.51e6	7.35e5	inactive
Taf5 (TBP-associated factor 5)	2	3.75e5	3.01e5	1.12e6	1.12e6	inactive
Ddc (Dopa decarboxylase)	1	1.28e5	1.88e5	1.83e6	2.03e6	inactive
Ddc (Dopa decarboxylase)	2	4.39e5	3.38e5	9.14e5	1.25e6	inactive

Reagents listed so far called active:
Target gene	dsRNA no.	firefly reporter light, replicate 1	firefly reporter light, replicate 2	Renilla control light, replicate 1	Renilla control light, replicate 2	activity call
CG7900	1	3.47e5	3.51e5	2.20e6	1.97e6	active
